According to US20030165887A1 (BURNHAM INSTITUTE, published 2003):
Results are given in words; binding and its absence hold for the method and conditions named. Binding seen in cells or lysates may run through a third protein. Some results given as binding are weak or reduced against the parent protein; the word gives no strength.

Chains of the proteins cited; added tags and fusions are not shown. Lines headed by an entry give the natural chain unless they say otherwise; changes in a name come on top.
UniProt P55211: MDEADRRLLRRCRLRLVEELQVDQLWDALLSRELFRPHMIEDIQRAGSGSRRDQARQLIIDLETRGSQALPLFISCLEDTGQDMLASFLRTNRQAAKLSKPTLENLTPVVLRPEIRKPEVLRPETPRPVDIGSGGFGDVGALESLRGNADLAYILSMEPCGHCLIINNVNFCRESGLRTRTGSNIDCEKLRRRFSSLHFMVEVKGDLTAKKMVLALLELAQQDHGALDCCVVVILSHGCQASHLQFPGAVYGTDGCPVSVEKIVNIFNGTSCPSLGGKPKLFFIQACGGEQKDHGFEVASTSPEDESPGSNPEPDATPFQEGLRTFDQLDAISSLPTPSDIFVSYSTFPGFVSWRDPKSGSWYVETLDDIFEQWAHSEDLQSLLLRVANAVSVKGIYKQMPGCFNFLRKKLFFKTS
UniProt Q9Y2G2: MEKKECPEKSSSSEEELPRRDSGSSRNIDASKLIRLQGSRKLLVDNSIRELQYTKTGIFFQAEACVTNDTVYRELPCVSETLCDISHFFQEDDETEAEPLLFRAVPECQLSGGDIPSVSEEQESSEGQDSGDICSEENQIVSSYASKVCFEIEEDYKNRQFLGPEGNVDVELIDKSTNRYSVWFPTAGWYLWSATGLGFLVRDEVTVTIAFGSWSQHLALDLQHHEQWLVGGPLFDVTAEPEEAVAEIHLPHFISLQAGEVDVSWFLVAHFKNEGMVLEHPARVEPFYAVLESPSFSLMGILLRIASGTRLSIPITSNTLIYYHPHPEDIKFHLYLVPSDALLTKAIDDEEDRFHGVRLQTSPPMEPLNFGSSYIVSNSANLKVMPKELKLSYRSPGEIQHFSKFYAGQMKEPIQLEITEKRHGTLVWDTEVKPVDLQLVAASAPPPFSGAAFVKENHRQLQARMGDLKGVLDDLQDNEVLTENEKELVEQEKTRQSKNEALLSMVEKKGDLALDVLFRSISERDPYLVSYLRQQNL

Experiments:
[1] = target: pro-caspase-9 inactive mutant (Cys287/Ala) (Homo sapiens (Human)) (UniProt P55211); experiment: co-immunoprecipitation, transfected cells, SDS-PAGE/immunoblot
[2] = target: pro-caspase-9 inactive mutant (Cys287/Ala) (Homo sapiens (Human)) (UniProt P55211); experiment: interaction tests with a panel of CARD-containing proteins (co-immunoprecipitation)
[3] = target: TUCAN (Tumor Up-regulated CARD-containing Antagonist of Caspase Nine), full-length (Homo sapiens (Human)) (UniProt Q9Y2G2); experiment: as above
[4] = target: TUCAN CARD-only fragment (residues 345-431) (Homo sapiens (Human)) (UniProt Q9Y2G2); experiment: co-immunoprecipitation with HA- and Myc-tagged proteins
[5] = target: TUCAN (Tumor Up-regulated CARD-containing Antagonist of Caspase Nine), full-length (Homo sapiens (Human)) (UniProt Q9Y2G2); experiment: as above
[6] = target: pro-caspase-9 inactive mutant (Cys287/Ala) (Homo sapiens (Human)) (UniProt P55211); experiment: co-immunoprecipitation with anti-Flag or anti-Myc from transfected HEK293T lysates, SDS-PAGE/immunoblot
[7] = target: pro-caspase-9 inactive mutant (Cys287/Ala) (Homo sapiens (Human)) (UniProt P55211); experiment: co-immunoprecipitation (legend of FIG. 8)
[8] = target: TUCAN (Tumor Up-regulated CARD-containing Antagonist of Caspase Nine), full-length (Homo sapiens (Human)) (UniProt Q9Y2G2); experiment: co-immunoprecipitation (legend of FIG. 8)

Measured: binding

TUCAN CARD-only fragment (residues 345-431) (from UniProt Q9Y2G2 451-537)
binds: [1]

B1: TUCAN (Tumor Up-regulated CARD-containing Antagonist of Caspase Nine), full-length (other)
chain: MMRQRQSHYCSVLFLSVNYLGGTFPGDICSEENQIVSSYASKVCFEIEEDYKNRQFLGPEGNVDVELIDKSTNRYSVWFPTAGWYLWSATGLGFLVRDEVTVTIAFGSWSQHLALDLQHHEQWLVGGPLFDVTAEPEEAVAEIHLPHFISLQGEVDVSWFLVAHFKNEGMVLEHPARVEPFYAVLESPSFSLMGILLRIASGTRLSIPITSNTLIYYHPHPEDIKFHLYLVPSDALLTKAIDDEEDRFHGVRLQTSPPMEPLNFGSSYIVSNSANLKVMPKELKLSYRSPGEIQHFSKFYAGQMKEPIQLEITEKRHGTLVWDTEVKPVDLQLVAASAPPPFSGAAFVKENHRQLQARMGDLKGVLDDLQDNEVLTENEKELVEQEKTRQSKNEALLSMVEKKGDLALDVLFRSISERDPYLVSYLRQQNL
notes: Full-length TUCAN expressed by transient transfection in HEK293T cells; also called full-length TUCAN; CARD-X
binds: all assays above
